Measured values from the supplement of paper PMC6078165.
Values are relative to the signal before dosing, not to a vehicle control; the signal also falls without drug.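 Labels refer to human fibroblasts, largely primary: uterine (C12385, HUF), lung (H6013), bone (Hs27A), adrenal (HADF), skin (WS1), plus mammary HMF and breast cancer-associated Hs343T. Cancer lines are basal-like or mesenchymal-like triple-negative breast cancer. The paper counts as hits responses shifting over 3x the replicate standard deviation. The tissue of the other fibroblasts is not given here.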

System: MDAMB436
Test: relative JC-1 red fluorescence (viability) vs pre-drug, coculture with fibroblast (fraction); higher = more viable cancer cells
Details: 0.1 µM
Procedure: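 JC-1 labelled TNBC cells cocultured 1:1 (1,500 cells each) with CellTrace Violet stained primary or stromal fibroblasts in 384-well plates in FluoroBrite medium, treated with one of 42 anticancer drugs at 0.1, 1, 10 or 100 uM. JC-1 red fluorescence (mitochondrial integrity in cancer cells only) was read by plate reader every 8 h for 72 h. Values are normalised to each well's pre-drug value. The stock of one drug was tenfold lower, so its dose labels may be too high.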

CC[C@]1(O)C[C@@H]2CN(CCc3c([nH]c4ccccc34)[C@@](C(=O)OC)(c3cc4c(cc3OC)N(C)[C@H]3[C@@](O)(C(=O)OC)[C@H](OC(C)=O)[C@]5(CC)C=CCN6CC[C@]43[C@@H]65)C2)C1 [Vinblastine]
relative JC-1 red fluorescence
Details | 8 h | 16 h | 24 h | 32 h | 40 h | 48 h | 56 h | 64 h | 72 h
coculture fibroblast: C12385 | 0.7429 | 0.723 | 0.722 | 0.659 | 0.634 | 0.625 | 0.619 | 0.62 | 0.642
coculture fibroblast: H6013 | 0.815 | 0.849 | 0.872 | 0.897 | 0.932 | 0.866 | 0.895 | 0.912 | 0.837
coculture fibroblast: H6019 | 0.75 | 0.752 | 0.748 | 0.688 | 0.673 | 0.67 | 0.657 | 0.656 | 0.661
coculture fibroblast: H6076 | 0.7624 | 0.7246 | 0.7489 | 0.721 | 0.732 | 0.72 | 0.762 | 0.775 | 0.783
coculture fibroblast: H6231 | 0.769 | 0.694 | 0.71 | 0.619 | 0.6 | 0.571 | 0.559 | 0.537 | 0.525
coculture fibroblast: HADF | 0.802 | 0.7152 | 0.691 | 0.666 | 0.65 | 0.685 | 0.628 | 0.63 | 0.606
coculture fibroblast: HCFa | 0.762 | 0.736 | 0.716 | 0.697 | 0.688 | 0.708 | 0.651 | 0.654 | 0.601
coculture fibroblast: HCPF | 0.728 | 0.686 | 0.692 | 0.633 | 0.6261 | 0.598 | 0.58166 | 0.574 | 0.566
coculture fibroblast: HHSteC | 0.79 | 0.767 | 0.735 | 0.7011 | 0.7 | 0.713 | 0.671 | 0.658 | 0.631
coculture fibroblast: HMF | 0.7252 | 0.681 | 0.668 | 0.62 | 0.616 | 0.579 | 0.597 | 0.579 | 0.578
coculture fibroblast: HPFa | 0.898 | 0.8141 | 0.773 | 0.728 | 0.72 | 0.716 | 0.661 | 0.644 | 0.614
coculture fibroblast: HUF | 0.844 | 0.739 | 0.72 | 0.655 | 0.608 | 0.577 | 0.553 | 0.539 | 0.536
coculture fibroblast: Hs5 | 0.786 | 0.761 | 0.751 | 0.694 | 0.695 | 0.646 | 0.658 | 0.639 | 0.648
coculture fibroblast: Hs27A | 0.855 | 0.798 | 0.793 | 0.788 | 0.79 | 0.869 | 0.783 | 0.799 | 0.726
coculture fibroblast: Hs343T | 0.80607 | 0.7511 | 0.718 | 0.673 | 0.641 | 0.599 | 0.579 | 0.559 | 0.548
coculture fibroblast: WS1 | 0.7691 | 0.717 | 0.705 | 0.634 | 0.609 | 0.5955 | 0.589 | 0.585 | 0.593
